This passage reports binding results from publication PMC9706435.

Protein sequences, listed by entry. Tags and fused reporters are not part of them.
UniProt Q9SR02: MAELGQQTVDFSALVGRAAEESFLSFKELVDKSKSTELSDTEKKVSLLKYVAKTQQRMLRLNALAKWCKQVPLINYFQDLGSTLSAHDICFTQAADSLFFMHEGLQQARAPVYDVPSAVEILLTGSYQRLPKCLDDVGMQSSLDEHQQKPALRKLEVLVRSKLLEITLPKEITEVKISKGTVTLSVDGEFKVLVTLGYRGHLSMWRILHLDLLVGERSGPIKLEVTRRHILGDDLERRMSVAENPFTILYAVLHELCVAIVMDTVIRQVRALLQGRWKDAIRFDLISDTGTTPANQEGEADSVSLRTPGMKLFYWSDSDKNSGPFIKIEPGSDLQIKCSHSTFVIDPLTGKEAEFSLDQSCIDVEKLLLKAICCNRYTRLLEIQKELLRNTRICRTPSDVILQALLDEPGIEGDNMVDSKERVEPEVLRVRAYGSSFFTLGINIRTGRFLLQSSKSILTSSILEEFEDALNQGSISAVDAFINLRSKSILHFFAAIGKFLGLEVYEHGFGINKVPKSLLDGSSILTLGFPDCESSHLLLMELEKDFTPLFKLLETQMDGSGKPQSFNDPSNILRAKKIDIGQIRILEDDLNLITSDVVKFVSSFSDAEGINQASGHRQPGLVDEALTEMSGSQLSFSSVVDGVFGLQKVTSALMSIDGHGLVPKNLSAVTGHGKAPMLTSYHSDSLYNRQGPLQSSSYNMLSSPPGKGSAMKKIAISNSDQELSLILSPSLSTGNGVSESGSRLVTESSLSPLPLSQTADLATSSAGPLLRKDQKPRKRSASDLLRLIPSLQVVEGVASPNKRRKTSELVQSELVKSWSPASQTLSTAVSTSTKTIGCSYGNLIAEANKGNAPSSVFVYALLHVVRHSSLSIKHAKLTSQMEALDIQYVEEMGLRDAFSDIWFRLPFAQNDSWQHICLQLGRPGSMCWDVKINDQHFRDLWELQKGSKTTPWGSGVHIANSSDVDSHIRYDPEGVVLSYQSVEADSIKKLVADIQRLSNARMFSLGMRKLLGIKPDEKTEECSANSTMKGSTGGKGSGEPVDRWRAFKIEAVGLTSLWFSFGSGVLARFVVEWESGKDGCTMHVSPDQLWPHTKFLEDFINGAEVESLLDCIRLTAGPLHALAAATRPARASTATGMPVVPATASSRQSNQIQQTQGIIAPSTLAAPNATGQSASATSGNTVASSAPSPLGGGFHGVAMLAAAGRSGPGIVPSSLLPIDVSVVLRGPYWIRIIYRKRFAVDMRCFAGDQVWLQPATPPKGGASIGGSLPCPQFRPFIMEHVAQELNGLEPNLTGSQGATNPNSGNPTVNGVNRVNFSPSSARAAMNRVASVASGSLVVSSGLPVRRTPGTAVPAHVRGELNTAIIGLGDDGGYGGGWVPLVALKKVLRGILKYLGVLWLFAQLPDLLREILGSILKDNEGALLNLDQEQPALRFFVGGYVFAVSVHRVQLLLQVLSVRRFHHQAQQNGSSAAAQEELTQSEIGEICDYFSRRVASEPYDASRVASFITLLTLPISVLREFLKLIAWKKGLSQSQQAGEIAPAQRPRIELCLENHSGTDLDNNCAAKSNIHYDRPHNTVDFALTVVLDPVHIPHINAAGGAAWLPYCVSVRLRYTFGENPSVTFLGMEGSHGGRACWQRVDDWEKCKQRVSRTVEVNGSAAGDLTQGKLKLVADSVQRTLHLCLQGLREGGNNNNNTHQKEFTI

Test [1] addresses T1, GST-PIF4 (PHYTOCHROME-… FACTOR 4) (Arabidopsis thaliana) (UniProt Q8W2F3).
T1 sequence: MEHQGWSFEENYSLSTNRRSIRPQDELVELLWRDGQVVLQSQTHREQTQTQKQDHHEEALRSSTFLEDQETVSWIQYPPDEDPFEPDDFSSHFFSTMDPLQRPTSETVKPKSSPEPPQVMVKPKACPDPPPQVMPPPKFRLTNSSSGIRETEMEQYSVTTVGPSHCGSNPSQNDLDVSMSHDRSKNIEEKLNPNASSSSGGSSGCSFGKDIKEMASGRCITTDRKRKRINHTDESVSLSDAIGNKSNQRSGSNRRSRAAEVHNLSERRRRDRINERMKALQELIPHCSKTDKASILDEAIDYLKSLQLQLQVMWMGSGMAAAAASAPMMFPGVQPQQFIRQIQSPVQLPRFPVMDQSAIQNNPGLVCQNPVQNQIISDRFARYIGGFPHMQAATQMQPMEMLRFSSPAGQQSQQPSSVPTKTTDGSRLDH
In words: pull-down; GST-PIF4 or GST-HMR bait immobilised on glutathione Sepharose 4B beads, incubated with in vitro translated HA-MED14 at 4°C for 2 h; washed four times with E buffer (50 mM Tris-HCl pH 7.5, 100 mM NaCl, 1 mM EDTA, 1 mM EGTA, 1% DMSO, 2 mM DTT, 0.1% Nonidet P-40); anti-HA immunoblot; only the target purified. For orientation: Immunoblotting shows a protein as a band on a membrane.

Test [2] has as its target T2, PIF4-NmVen210 (Arabidopsis thaliana) (UniProt Q8W2F3).
T2 sequence: T1 sequence
Nature of the test: split reporter; BiFC with pDOE-01 (NmVenus210 / cVenus210) co-expressed with CFP in N. benthamiana by agroinfiltration (OD 0.1); confocal imaging 40-70 h after infiltration.

Results are given in words; binding and its absence hold for the method and conditions named. Binding seen in cells or lysates may run through a third protein. Some results given as binding are weak or reduced against the parent protein; the word gives no strength. For some assays here: Where a sequence is shown, tags or fusion partners need not be part of it.

As to HA-MED14 (from UniProt Q9SR02 1-1703), the binding result in test [1] is on record as “binds”.
In the case of “MED14-cVen210 (from UniProt Q9SR02 1-1703)”, the binding entry in test [2] is given as “binds”.
